PubChem BioAssay AID504793, Drosophila RNAi Screening Center, 2011

Test: 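Knock-downs allowing continued mitosis even though DNA is damaged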 (primary screen)
Cells: Drosophila S2R+ cells
Knock-down reagent: long dsRNA against Drosophila genes, about 0.25 µg dsRNA per well
Timing: 4 days of dsRNA, then 4 hours of drug before read-out
Challenge: doxorubicin 0.5 µM for 4 hours to cause double-strand breaks, in cells also given a low, harmless dose of dsRNA against nbs to sensitise the assay
Measured: 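Mitotic index as the number of phospho-histone H3-positive cells in each well following doxorubicin, given as raw counts without normalisation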
Scale: mitotic cells: higher = more cells in mitosis, weaker G2 arrest
Active means: 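Genes are called active only when high mitotic counts were reproduced with independent dsRNAs and mitosis was checked for delay without damage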
Calls: active = confirmed in follow-up tests; inactive = not confirmed
The screen tested about 23,000 reagents; this is an unselected part of those that have a named target and a result. Over the whole deposit, 62 (0.27%) were called active. 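Calls come from follow-up tests whose scores are not deposited, so confirmed genes may have low counts here; counts are not normalised per plate.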 Raw values are not corrected between plates. A number with no mark means an inactive call. The numbers tell different reagents against one gene apart.

Depletion of lft came out at: mitotic cells, replicate 1 = 4. CG32027 (retired record) gave mitotic cells, replicate 1 = 12. Depletion of Tsp42Ee #1 resulted in: mitotic cells, replicate 1 = 9. For Tsp42Ee #2 the deposit lists mitotic cells, replicate 1 = 6. RNaseMRP:RNA scored mitotic cells, replicate 1 = 6. Knock-down of Cyp6a19 resulted in: mitotic cells, replicate 1 = 4.

Rab3-GEF #1 gave mitotic cells, replicate 1 = 7. Knock-down of Rab3-GEF #2 gave: mitotic cells, replicate 1 = 12. Knock-down of Rab3-GEF #3 resulted in: mitotic cells, replicate 1 = 4. For CG8534 the deposit lists mitotic cells, replicate 1 = 10. For esn #1, the entry reads mitotic cells, replicate 1 = 5. esn #2 scored mitotic cells, replicate 1 = 8.

For Takl1 #1 the deposit lists mitotic cells, replicate 1 = 6. With knock-down of Takl1 #2, the record shows mitotic cells, replicate 1 = 7.
